Measured values from the supplement of paper PMC10849652.
The list shows a part of the results.

The chains behind the UniProt entries cited, without tags or fusion partners. Where a name states a change or a piece, a line headed by the entry shows the natural chain unless it says otherwise.
UniProt Q16549: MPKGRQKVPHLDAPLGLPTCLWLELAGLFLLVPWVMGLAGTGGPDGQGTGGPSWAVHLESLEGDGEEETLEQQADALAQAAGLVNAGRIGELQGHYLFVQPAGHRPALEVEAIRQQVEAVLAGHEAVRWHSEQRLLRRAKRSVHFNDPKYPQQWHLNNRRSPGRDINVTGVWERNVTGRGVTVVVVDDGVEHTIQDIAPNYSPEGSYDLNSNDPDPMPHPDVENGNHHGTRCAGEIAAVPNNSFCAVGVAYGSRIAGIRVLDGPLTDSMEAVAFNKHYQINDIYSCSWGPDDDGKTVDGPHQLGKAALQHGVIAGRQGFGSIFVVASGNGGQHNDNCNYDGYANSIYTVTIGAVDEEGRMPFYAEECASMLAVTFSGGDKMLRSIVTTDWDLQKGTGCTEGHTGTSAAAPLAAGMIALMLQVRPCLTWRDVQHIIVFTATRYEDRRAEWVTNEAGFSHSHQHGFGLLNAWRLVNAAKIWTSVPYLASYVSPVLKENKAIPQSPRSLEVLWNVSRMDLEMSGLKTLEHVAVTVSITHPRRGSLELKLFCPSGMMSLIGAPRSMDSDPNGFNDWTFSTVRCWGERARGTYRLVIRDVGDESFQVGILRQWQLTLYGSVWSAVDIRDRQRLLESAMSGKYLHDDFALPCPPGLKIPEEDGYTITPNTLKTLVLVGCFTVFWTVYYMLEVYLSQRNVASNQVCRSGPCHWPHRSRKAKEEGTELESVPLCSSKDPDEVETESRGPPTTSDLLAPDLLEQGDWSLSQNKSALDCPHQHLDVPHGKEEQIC
UniProt Q9H6A9: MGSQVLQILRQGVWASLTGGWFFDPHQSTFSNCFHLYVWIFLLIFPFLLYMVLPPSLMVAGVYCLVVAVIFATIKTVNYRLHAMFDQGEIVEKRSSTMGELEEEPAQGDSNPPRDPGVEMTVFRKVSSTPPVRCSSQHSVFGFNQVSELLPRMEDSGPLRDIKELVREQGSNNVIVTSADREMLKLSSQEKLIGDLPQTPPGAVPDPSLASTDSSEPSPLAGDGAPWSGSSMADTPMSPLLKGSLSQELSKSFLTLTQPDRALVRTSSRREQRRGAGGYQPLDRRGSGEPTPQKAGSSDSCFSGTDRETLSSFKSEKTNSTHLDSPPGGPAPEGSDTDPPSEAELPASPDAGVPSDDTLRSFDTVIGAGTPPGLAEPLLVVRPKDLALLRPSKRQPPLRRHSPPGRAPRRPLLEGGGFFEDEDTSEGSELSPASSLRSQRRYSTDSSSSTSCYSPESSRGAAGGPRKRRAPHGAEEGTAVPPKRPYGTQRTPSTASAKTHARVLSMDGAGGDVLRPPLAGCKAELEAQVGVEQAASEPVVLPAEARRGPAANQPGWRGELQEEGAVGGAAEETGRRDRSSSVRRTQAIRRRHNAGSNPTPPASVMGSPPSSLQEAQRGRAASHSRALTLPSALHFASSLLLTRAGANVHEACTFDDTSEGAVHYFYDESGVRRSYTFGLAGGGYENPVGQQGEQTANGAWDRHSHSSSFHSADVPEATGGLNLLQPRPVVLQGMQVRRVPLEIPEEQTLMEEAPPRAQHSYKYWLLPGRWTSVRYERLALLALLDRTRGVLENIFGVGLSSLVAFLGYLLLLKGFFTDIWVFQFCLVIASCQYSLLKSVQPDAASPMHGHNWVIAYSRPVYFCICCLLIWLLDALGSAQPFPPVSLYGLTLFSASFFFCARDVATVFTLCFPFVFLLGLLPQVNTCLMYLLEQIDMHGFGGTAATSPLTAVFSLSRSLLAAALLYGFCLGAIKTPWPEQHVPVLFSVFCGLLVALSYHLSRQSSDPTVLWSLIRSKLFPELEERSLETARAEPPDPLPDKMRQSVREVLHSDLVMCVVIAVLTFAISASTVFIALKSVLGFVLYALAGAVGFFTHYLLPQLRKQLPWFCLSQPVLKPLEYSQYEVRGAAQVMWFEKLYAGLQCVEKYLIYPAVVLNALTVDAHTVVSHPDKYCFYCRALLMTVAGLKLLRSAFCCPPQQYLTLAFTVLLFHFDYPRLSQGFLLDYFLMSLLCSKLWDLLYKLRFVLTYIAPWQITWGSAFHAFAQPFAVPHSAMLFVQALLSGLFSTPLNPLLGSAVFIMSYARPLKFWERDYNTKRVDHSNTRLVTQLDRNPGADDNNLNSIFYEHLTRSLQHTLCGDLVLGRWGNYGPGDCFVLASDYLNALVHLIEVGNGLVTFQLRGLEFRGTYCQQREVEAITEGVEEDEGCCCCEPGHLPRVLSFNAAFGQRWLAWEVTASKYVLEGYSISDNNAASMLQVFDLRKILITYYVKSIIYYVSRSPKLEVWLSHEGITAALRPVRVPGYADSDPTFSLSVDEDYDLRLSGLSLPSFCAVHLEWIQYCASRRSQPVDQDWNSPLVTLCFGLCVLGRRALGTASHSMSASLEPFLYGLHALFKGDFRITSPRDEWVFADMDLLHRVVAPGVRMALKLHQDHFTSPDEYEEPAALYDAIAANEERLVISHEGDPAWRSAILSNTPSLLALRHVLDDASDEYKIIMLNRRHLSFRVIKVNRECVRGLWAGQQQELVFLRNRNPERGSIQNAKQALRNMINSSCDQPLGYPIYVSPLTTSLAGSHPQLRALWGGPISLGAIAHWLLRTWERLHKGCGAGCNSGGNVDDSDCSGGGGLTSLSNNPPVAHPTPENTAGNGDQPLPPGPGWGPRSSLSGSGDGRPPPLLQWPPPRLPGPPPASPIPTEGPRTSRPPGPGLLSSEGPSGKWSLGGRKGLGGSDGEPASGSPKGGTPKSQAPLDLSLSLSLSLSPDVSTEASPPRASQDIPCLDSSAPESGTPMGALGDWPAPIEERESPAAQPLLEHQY
UniProt Q9UKK3: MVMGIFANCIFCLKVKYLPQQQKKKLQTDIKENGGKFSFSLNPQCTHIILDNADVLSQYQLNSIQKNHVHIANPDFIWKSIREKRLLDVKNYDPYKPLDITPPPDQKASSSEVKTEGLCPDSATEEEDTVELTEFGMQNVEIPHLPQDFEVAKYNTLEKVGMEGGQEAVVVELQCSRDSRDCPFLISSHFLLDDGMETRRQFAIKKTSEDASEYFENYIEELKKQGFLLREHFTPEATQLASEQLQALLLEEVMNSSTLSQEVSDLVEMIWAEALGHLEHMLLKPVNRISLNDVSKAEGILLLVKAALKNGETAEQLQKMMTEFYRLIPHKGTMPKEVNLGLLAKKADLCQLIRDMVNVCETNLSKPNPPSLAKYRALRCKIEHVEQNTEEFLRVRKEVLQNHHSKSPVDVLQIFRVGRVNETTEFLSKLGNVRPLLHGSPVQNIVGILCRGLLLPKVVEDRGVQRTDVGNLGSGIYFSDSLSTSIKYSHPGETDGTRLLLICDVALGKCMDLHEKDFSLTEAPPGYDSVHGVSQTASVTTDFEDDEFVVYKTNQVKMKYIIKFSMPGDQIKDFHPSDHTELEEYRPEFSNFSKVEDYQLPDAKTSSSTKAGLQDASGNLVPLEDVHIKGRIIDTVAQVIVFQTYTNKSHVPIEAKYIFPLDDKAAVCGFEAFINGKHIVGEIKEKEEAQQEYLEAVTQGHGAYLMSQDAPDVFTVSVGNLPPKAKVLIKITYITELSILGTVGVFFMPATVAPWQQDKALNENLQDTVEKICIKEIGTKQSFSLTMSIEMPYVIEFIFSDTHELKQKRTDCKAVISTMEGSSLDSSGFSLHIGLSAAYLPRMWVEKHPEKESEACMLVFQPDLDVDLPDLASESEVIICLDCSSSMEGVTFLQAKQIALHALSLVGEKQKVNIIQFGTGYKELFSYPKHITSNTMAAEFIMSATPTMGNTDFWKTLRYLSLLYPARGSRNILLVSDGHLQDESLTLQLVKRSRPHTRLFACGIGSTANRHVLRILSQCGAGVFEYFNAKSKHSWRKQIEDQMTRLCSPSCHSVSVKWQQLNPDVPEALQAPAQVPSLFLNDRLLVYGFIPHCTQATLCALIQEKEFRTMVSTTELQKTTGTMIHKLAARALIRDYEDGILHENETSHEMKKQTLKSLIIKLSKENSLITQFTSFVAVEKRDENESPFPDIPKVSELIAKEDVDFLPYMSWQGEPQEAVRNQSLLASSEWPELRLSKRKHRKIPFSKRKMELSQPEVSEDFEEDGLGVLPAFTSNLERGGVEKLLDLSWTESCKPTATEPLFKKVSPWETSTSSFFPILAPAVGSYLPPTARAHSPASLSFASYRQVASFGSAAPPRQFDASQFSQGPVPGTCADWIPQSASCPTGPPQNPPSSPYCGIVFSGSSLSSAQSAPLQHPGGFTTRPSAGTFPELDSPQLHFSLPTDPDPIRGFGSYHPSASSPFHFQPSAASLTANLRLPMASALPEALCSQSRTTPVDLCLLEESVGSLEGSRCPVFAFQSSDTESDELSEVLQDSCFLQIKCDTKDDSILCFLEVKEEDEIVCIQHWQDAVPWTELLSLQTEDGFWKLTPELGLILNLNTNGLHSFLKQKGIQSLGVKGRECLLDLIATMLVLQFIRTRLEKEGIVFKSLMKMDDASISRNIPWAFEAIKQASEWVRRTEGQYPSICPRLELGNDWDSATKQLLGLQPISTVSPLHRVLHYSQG
UniProt Q15154: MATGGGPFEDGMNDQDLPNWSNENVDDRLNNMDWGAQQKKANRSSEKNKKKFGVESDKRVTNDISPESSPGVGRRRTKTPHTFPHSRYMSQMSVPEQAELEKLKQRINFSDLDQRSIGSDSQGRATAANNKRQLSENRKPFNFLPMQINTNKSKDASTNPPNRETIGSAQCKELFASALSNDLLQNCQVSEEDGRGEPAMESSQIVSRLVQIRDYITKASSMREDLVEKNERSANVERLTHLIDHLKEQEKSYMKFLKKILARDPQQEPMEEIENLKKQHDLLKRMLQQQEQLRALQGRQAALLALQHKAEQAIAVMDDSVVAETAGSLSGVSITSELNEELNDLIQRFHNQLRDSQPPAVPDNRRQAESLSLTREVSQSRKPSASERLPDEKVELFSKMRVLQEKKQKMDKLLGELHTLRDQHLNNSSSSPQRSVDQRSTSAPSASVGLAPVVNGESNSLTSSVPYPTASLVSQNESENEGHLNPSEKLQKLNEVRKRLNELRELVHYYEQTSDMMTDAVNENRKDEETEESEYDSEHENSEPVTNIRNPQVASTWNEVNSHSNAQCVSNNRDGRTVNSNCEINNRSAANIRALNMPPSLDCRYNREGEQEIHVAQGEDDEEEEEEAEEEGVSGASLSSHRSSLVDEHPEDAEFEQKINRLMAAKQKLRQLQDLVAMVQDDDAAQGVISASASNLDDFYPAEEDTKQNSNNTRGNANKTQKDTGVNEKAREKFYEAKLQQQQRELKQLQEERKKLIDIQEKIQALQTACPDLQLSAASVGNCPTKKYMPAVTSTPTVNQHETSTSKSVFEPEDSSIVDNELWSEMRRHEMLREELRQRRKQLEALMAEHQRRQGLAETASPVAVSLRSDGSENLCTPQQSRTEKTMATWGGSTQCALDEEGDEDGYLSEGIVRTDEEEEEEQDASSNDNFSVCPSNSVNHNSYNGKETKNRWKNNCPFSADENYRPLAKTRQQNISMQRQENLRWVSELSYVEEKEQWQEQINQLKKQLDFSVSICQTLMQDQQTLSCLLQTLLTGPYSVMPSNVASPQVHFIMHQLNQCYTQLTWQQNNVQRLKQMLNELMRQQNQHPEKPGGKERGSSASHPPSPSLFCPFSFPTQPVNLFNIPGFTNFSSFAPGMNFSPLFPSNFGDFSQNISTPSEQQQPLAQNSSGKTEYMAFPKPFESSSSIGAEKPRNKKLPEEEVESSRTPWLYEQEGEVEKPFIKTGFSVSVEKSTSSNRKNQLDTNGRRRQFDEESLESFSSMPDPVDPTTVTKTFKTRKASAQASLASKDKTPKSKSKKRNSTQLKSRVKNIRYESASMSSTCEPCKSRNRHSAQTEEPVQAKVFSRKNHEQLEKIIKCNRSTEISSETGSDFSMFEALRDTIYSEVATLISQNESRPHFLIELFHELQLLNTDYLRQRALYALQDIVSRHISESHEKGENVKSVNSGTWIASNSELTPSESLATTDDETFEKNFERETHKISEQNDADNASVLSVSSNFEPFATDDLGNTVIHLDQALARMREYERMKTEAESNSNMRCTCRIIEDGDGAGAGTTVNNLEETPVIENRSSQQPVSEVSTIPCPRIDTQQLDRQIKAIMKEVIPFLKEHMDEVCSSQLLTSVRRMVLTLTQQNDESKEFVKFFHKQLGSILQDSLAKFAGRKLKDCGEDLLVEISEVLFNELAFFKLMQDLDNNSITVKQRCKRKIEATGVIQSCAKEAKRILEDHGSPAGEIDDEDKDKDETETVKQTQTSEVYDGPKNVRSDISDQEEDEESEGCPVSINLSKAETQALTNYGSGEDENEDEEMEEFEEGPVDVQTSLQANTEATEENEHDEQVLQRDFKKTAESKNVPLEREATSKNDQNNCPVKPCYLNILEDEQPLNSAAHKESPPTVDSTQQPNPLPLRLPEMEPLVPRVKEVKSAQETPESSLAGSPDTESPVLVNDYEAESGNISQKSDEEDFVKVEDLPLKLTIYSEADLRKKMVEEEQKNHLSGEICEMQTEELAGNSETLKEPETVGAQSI

How the values were obtained:
Assay in all cases: log2 fold change, soluble protein after heating vs DMSO (PISA); higher = thermal stabilisation; K562 cells, 10 uM, 30 min; active = over 0.2 and 3.5 SD of the protein, either way, in both replicates (recomputed)
[1] = compound: COC1=CC=C(C=C1)CN2C=CC3=C2C=C(C=C3)C(=O)NO
In short: (§1)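 Values are thermal stability changes relative to control samples and are taken from duplicates. They are stated as log2 fold changes. Before quantification by TMTpro 16plex LC-MS/MS with equalised channel sums, K562 cells at 2×10^6 cells/mL were treated with 10 μM compound for 30 min, heated in aliquots for 3 min across 48°C-58°C, pooled, extracted in PBS with 0.5% NP-40 at 4°C, and centrifuged at 21,000xg for 90 min to give the soluble supernatant.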

alisertib = compound: COc1cc(Nc2ncc3c(n2)-c2ccc(Cl)cc2C(c2c(F)cccc2OC)=NC3)ccc1C(=O)O [alisertib]
In short: as §1

[2] = compound: COc1cccc2cc(-c3nc([C@H]4CC[C@H](C(=O)O)CC4)n4ncnc(N)c34)[nH]c12
In short: as §1

crizotinib = compound: C[C@@H](Oc1cc(-c2cnn(C3CCNCC3)c2)cnc1N)c1c(Cl)ccc(F)c1Cl [crizotinib]
In short: as §1

doramapimod = compound: Cc1ccc(-n2nc(C(C)(C)C)cc2NC(=O)Nc2ccc(OCCN3CCOCC3)c3ccccc23)cc1 [doramapimod]
In short: as §1

zotarolimus = compound: CO[C@H]1C[C@@H]2CC[C@@H](C)[C@@](O)(O2)C(=O)C(=O)N2CCCC[C@H]2C(=O)O[C@H]([C@H](C)C[C@@H]2CC[C@H](n3cnnn3)[C@H](OC)C2)CC(=O)[C@H](C)/C=C(\C)[C@@H](O)[C@@H](OC)C(=O)[C@H](C)C[C@H](C)/C=C/C=C/C=C/1C [zotarolimus]
In short: as §1

idasanutlin = compound: COc1cc(C(=O)O)ccc1NC(=O)[C@@H]1N[C@@H](CC(C)(C)C)[C@](C#N)(c2ccc(Cl)cc2F)[C@H]1c1cccc(Cl)c1F [idasanutlin]
In short: as §1

[3] = compound: COc1cc2nc(-c3cc(F)ccc3O)nc(N[C@@H]3CNC[C@H]3C(C)(C)O)c2cc1OC
In short: as §1

lapatinib = compound: CS(=O)(=O)CCNCc1ccc(-c2ccc3ncnc(Nc4ccc(OCc5cccc(F)c5)c(Cl)c4)c3c2)o1 [lapatinib]
In short: as §1

[4] = compound: C[C@@H]1COCCN1C2=NC(=NC(=C2)C3(CC3)S(=O)(=O)C)C4=C5C=CNC5=CC=C4
In short: as §1

[5] = compound: C[C@H](C1=CC=C(C=C1)C(=O)NC2=C3C=CNC3=NC=C2)N
In short: as §1

ispinesib = compound: Cc1ccc(C(=O)N(CCCN)[C@@H](c2nc3cc(Cl)ccc3c(=O)n2Cc2ccccc2)C(C)C)cc1 [ispinesib]
In short: as §1

tozasertib = compound: Cc1cc(Nc2cc(N3CCN(C)CC3)nc(Sc3ccc(NC(=O)C4CC4)cc3)n2)n[nH]1 [tozasertib]
In short: as §1

pictilisib = compound: CS(=O)(=O)N1CCN(Cc2cc3nc(-c4cccc5[nH]ncc45)nc(N4CCOCC4)c3s2)CC1 [pictilisib]
In short: as §1

gandotinib = compound: Cc1cc(Nc2cc(CN3CCOCC3)c3nc(C)c(Cc4ccc(Cl)cc4F)n3n2)n[nH]1 [gandotinib]
In short: as §1

gefitinib = compound: COc1cc2ncnc(Nc3ccc(F)c(Cl)c3)c2cc1OCCCN1CCOCC1 [gefitinib]
In short: as §1

[6] = compound: Cc1cc(SCc2sc(-c3ccc(C(F)(F)F)cc3)nc2C)ccc1OCC(=O)O
In short: as §1

filanesib = compound: CON(C)C(=O)N1N=C(c2cc(F)ccc2F)S[C@@]1(CCCN)c1ccccc1 [filanesib]
In short: as §1

[7] = compound: CS(=O)(=O)c1ccc(-c2cnc(N)c(C(=O)Nc3ccccc3)n2)cc1
In short: as §1

duvelisib = compound: C[C@H](Nc1ncnc2nc[nH]c12)c1cc2cccc(Cl)c2c(=O)n1-c1ccccc1 [duvelisib]
In short: as §1

Measured: log2 fold change

PALM (UniProt O75781)
inactive: [1] -0.112 | alisertib -0.06 | [2] -0.177 | crizotinib 0.158 | doramapimod 0.19

PDE4A (UniProt P27815)
inactive: [1] -0.442 | zotarolimus 0.07 | idasanutlin 0.098 | [3] 0.112 | lapatinib -0.016 | crizotinib 0.055 | [4] -0.102 | [5] -0.171 | doramapimod 0.065 | ispinesib -0.098

PEMT isoform 2 (UniProt Q9UBM1)
inactive: tozasertib 0.077

PCSK7 (UniProt Q16549)
inactive: [3] -0.145 | lapatinib 0.046

PCNX3 (UniProt Q9H6A9)
inactive: [3] 0.176 | lapatinib -0.133

PAXBP1 (UniProt Q9Y5B6)
inactive: [1] 0.085 | pictilisib -0.209 | crizotinib -0.474 | gandotinib 0.072 | tozasertib 0.123 | doramapimod 0.043 | ispinesib -0.092

PCNX1 (UniProt Q96RV3)
inactive: alisertib -0.059 | [3] 0.34 | gefitinib -0.028 | [2] 0.035 | lapatinib -0.475 | [4] 0.257

PCBP2 (UniProt F8VZX2)
inactive: [1] 0.03 | zotarolimus 0.158 | alisertib -0.04 | gefitinib -0.111 | [2] -0.018 | crizotinib -0.273 | [5] 0.234 | [6] 0.065 | doramapimod -0.107 | ispinesib -0.124

PDXP (UniProt B1AHD3)
inactive: zotarolimus 0.185 | [4] -0.277 | [5] -0.076

PANK3 (UniProt Q9H999)
inactive: filanesib 0.008 | zotarolimus -0.066 | idasanutlin 0.152 | [3] 0.084 | gefitinib -0.01 | lapatinib -0.03 | pictilisib 0.079 | [7] 0.184 | [4] -0.032 | [5] -0.072 | duvelisib 0.049 | gandotinib 0.033 | tozasertib -0.131 | [6] 0.185 | ispinesib -0.015

PARP4 (UniProt Q9UKK3)
inactive: filanesib -0.023 | [7] -0.225 | duvelisib -0.086 | [6] 0.049

PDIA4, A0A499FI48
inactive: [1] -0.047 | idasanutlin 0.217 | alisertib 0.084 | [3] -0.102 | [2] -0.233 | lapatinib 0.059 | pictilisib -0.068 | crizotinib 0.177 | duvelisib -0.054 | gandotinib -0.021 | tozasertib 0.038 | [6] 0 | doramapimod 0.065 | ispinesib -0.077

PACSIN3 (UniProt Q9UKS6)
inactive: [1] 0.125 | crizotinib -0.208 | [4] -0.136 | doramapimod 0.099 | ispinesib -0.111

PDE4DIP (UniProt E9PS60)
inactive: [1] 0 | zotarolimus -0.032 | crizotinib -0.225 | [5] 0.212 | doramapimod 0.102

PCSK6 isoform 7 (UniProt P29122)
inactive: filanesib 0.024 | zotarolimus -0.163 | idasanutlin -0.072 | alisertib -0.125 | [3] 0.165 | gefitinib 0.016 | [2] 0.131 | lapatinib -0.131 | pictilisib 0.227 | [7] -0.006 | [5] 0.188 | gandotinib -0.214

PAICS (UniProt D6RF62)
inactive: idasanutlin 0.217 | [3] 0.327 | lapatinib -0.317 | pictilisib -0.083 | duvelisib 0.079 | gandotinib -0.008 | [6] -0.137 | ispinesib -0.208

PAN3 (UniProt Q58A45)
inactive: pictilisib 0.175 | gandotinib 0.11 | ispinesib -0.353

PCMTD1 (UniProt Q96MG8)
inactive: [1] -0.091 | gefitinib 0.189 | crizotinib -0.302 | [4] 0.193 | duvelisib 0.395 | [6] 0.045 | doramapimod -0.054 | ispinesib -0.062

PDE3B (UniProt Q13370)
inactive: [1] -0.17 | alisertib -0.057 | [2] 0.46 | crizotinib -0.173 | [4] -0.395 | doramapimod 0.147

PAGE4 (UniProt O60829)
inactive: filanesib -0.05 | zotarolimus -0.103 | idasanutlin -0.082 | alisertib 0.001 | gefitinib 0.029 | [2] 0.036 | pictilisib 0.174 | [7] -0.174 | [4] 0.112 | [5] 0.189 | gandotinib -0.113 | tozasertib 0.052 | ispinesib -0.23

PCGF6 (UniProt Q9BYE7)
inactive: duvelisib 0.055 | [6] 0.072

PABPN1 (UniProt Q86U42)
inactive: zotarolimus -0.041 | alisertib -0.055 | [2] 0.022 | pictilisib 0.212 | [5] 0.244 | duvelisib 0.226 | gandotinib -0.262 | [6] -0.054

PEX10 isoform 2 (UniProt O60683)
inactive: filanesib 0.033 | zotarolimus -0.085 | idasanutlin 0.096 | alisertib -0.085 | [3] -0.068 | [2] -0.132 | lapatinib 0.061 | pictilisib -0.086 | [7] -0.032 | [5] 0.002 | duvelisib 0.032 | gandotinib -0.053 | tozasertib 0.012 | [6] 0.055

PAN2 (UniProt Q504Q3)
inactive: gefitinib 0.013 | [6] 0.299

PACS2 isoform 2 (UniProt Q86VP3)
inactive: filanesib -0.225 | [7] 0.061

PCDH1 isoform 2 (UniProt Q08174)
inactive: filanesib -0.03 | [7] 0.02 | tozasertib -0.111

PAF1 (UniProt Q8N7H5)
inactive: zotarolimus -0.096 | alisertib -0.034 | [2] 0.026 | pictilisib -0.326 | [4] -0.049 | [5] 0.228 | duvelisib -0.04 | gandotinib 0.062 | [6] 0.191 | ispinesib -0.06

PANK1 (UniProt Q8TE04)
inactive: filanesib -0.055 | zotarolimus 0.015 | idasanutlin 0.133 | alisertib 0.041 | [3] 0.019 | gefitinib 0.038 | [2] 0.099 | lapatinib 0.044 | pictilisib 0.061 | [7] 0.016 | [4] 0.074 | [5] 0.008 | duvelisib 0.222 | gandotinib -0.1 | tozasertib -0.046 | [6] -0.123 | ispinesib -0.116

Two entries drawn at random from the list so far:
PEX10 isoform 2 (UniProt O60683)
inactive: filanesib 0.033 | zotarolimus -0.085 | idasanutlin 0.096 | alisertib -0.085 | [3] -0.068 | [2] -0.132 | lapatinib 0.061 | pictilisib -0.086 | [7] -0.032 | [5] 0.002 | duvelisib 0.032 | gandotinib -0.053 | tozasertib 0.012 | [6] 0.055

PACSIN3 (UniProt Q9UKS6)
inactive: [1] 0.125 | crizotinib -0.208 | [4] -0.136 | doramapimod 0.099 | ispinesib -0.111

Next results:

PAPOLA (UniProt G3XAH6)
inactive: gefitinib 0.356

PACRGL (UniProt Q8N7B6)
inactive: filanesib 0.056 | [7] -0.074

PCM1 isoform 2 (UniProt Q15154)
inactive: filanesib 0.163 | alisertib 0.117 | [2] 0.136 | pictilisib 0.007 | [7] 0.063 | duvelisib 0.003 | gandotinib -0.275 | [6] -0.077

PARD3 (UniProt Q8TEW0)
inactive: [3] -0.05 | lapatinib 0.134 | pictilisib -0.123 | gandotinib 0.092
